These results are taken from US20240108723A1.

Sequences of proteins named here, by UniProt entry; tags and fusion partners are left off. Residues count along the entry.
UniProt P15328, residues 25-233: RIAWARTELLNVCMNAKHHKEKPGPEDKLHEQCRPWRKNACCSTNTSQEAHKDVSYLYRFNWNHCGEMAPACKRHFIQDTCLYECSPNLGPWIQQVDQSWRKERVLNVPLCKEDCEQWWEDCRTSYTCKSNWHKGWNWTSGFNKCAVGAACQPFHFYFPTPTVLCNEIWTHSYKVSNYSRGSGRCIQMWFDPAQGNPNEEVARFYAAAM

Results are given in words; binding and its absence hold for the method and conditions named. Some results given as binding are weak or reduced against the parent protein; the word gives no strength.

Assay [1] addresses biotinylated FOLR1-Fc fusion protein (UniProt P15328). The experiment in a line: flow cytometry; direct CAR labelling with biotinylated FOLR1-Fc on transduced cells. For orientation: In flow cytometry, cells or beads pass a laser one at a time.
The target is the same in assay [2]. The experiment in a line: flow cytometry; titration of biotinylated FOLR1-Fc on CAR T cells, anti-biotin-PE secondary staining.

B1: MB-CART FOLR1 D (protein)
chain: DIQLTQSPSSLSASVGDRVTITCSVSSSISSNNLHWYQQKPGKAPKPWIYGTSNLASGVPSRFSGSGSGTDYTFTISSLQPEDIATYYCQQWSSYPYMYTFGQGTKVEIKRTGGGGSGGGGSGGGGSMEVQLVESGGGVVQPGRSLRLSCSASGFTFSGYGLSWVRQAPGKGLEWVAMISSGGSYTYYADSVKGRFAISRDNAKNTLFLQMDSLRPEDTGVYFCARHGDDPAWFAYWGQGTPVTVSSASTKGAAAESKYGPPCPPCPIYIWAPLAGTCGVLLLSLVITLYCKRGRKKLLYIFKQPFMRPVQTTQEEDGCSCRFPEEEEGGCELRVKFSRSADAPAYQQGQNQLYNELNLGRREEYDVLDKRRGRDPEMGGKPRRKNPQEGLYNELQKDKMAEAYSEIGMKGERRRGKGHDGLYQGLSTATKDTYDALHMQALPPR
As for B1, in assay [1], the binding result was “binds”.

B2: MB-CART FOLR1 C (protein)
chain: MEVQLVESGGGVVQPGRSLRLSCSASGFTFSGYGLSWVRQAPGKGLEWVAMISSGGSYTYYADSVKGRFAISRDNAKNTLFLQMDSLRPEDTGVYFCARHGDDPAWFAYWGQGTPVTVSSASTKGGGGGSGGGGSGGGGSDIQLTQSPSSLSASVGDRVTITCSVSSSISSNNLHWYQQKPGKAPKPWIYGTSNLASGVPSRFSGSGSGTDYTFTISSLQPEDIATYYCQQWSSYPYMYTFGQGTKVEIKRTAAAESKYGPPCPPCPIYIWAPLAGTCGVLLLSLVITLYCKRGRKKLLYIFKQPFMRPVQTTQEEDGCSCRFPEEEEGGCELRVKFSRSADAPAYQQGQNQLYNELNLGRREEYDVLDKRRGRDPEMGGKPRRKNPQEGLYNELQKDKMAEAYSEIGMKGERRRGKGHDGLYQGLSTATKDTYDALHMQALPPR
B2: the binding result in assay [2] and in assay [1] was “binds” each time.

B3: MB-CART FOLR1 G (protein)
chain: MQVQLVQSGAEVVKPGASVKISCKASGYTFTGYFMNWVKQSPGQSLEWIGRIHPYDGDTFYNQKFQGKATLTVDKSSNTAHMELLSLTSEDFAVYYCTRYDGSRAMDYWGQGTTVTVSSASTKGGGGGSGGGGSGGGGSDIVLTQSPLSLAVSLGQPAIISCKASQSVSFAGTSLMHWYHQKPGQQPRLLIYRASNLEAGVPDRFSGSGSKTDFTLTISPVEAEDAATYYCQQSREYPYTFGGGTKLEIKRTAAAESKYGPPCPPCPIYIWAPLAGTCGVLLLSLVITLYCKRGRKKLLYIFKQPFMRPVQTTQEEDGCSCRFPEEEEGGCELRVKFSRSADAPAYQQGQNQLYNELNLGRREEYDVLDKRRGRDPEMGGKPRRKNPQEGLYNELQKDKMAEAYSEIGMKGERRRGKGHDGLYQGLSTATKDTYDALHMQALPPR
In the case of B3, the binding entry in assay [2] and in assay [1] was “binds” in each case.

B4: MB-CART FOLR1 H (protein)
chain: DIVLTQSPLSLAVSLGQPAIISCKASQSVSFAGTSLMHWYHQKPGQQPRLLIYRASNLEAGVPDRFSGSGSKTDFTLTISPVEAEDAATYYCQQSREYPYTFGGGTKLEIKRTGGGGSGGGGSGGGGSMQVQLVQSGAEVVKPGASVKISCKASGYTFTGYFMNWVKQSPGQSLEWIGRIHPYDGDTFYNQKFQGKATLTVDKSSNTAHMELLSLTSEDFAVYYCTRYDGSRAMDYWGQGTTVTVSSASTKGAAAESKYGPPCPPCPIYIWAPLAGTCGVLLLSLVITLYCKRGRKKLLYIFKQPFMRPVQTTQEEDGCSCRFPEEEEGGCELRVKFSRSADAPAYQQGQNQLYNELNLGRREEYDVLDKRRGRDPEMGGKPRRKNPQEGLYNELQKDKMAEAYSEIGMKGERRRGKGHDGLYQGLSTATKDTYDALHMQALPPR
Consider B4, for which the binding result in assay [1] is “binds”.
